In all, about 33,000 sequences were measured (“E-score (-0.5 to 0.5)”: median about -0.0034, highest 2% from about 0.25 on). Some of the results follow.
target: T1, Yap3 (UniProt P38749); test: PBM E-score (8-mer binding enrichment) (E-score (-0.5 to 0.5)); higher = stronger / more preferred TF binding; details: protein concentration: 100 nM; construct: GST-full length
T1 sequence: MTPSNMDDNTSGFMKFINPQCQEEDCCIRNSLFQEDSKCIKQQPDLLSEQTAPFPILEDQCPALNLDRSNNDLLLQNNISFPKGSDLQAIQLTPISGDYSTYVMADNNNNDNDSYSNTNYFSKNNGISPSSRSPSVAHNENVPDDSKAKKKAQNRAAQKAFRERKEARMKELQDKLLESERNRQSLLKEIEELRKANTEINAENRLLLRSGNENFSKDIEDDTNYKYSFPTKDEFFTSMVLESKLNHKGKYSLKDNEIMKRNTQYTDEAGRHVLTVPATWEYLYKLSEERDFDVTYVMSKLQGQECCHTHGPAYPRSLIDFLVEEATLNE
Experimental: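 Universal 'all 10-mer' protein binding microarrays (Agilent AMADID 015681) probed with GST-tagged S. cerevisiae TFs (full-length or DBD) made by in vitro transcription/translation (PURExpress), about 100-200 nM. Bound TF was detected with fluorescent anti-GST. Each ungapped 8-mer (which stands for itself and its reverse complement) is scored by the PBM enrichment score (E-score), a modified Wilcoxon-Mann-Whitney statistic from -0.5 to +0.5, computed with the Universal PBM Analysis Suite. Scale: above 0.35 generally sequence-specific binding.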

Point of comparison: GATAAATA, “PBM E-score” value 0.233. Against it:
- CCAGGGCG — lower, -0.337
- GAATTGAC — lower, 0.0879
- GAAGGAGC — lower, -0.349
- ACATCTGG — lower, 0.00951
- CATATTCG — lower, 0.123
- GTAGACAA — lower, 0.117
- GCGTATAA — lower, 0.116
- GAGTGCTA — lower, 0.0381
- AACTCCGG — lower, 0.0615
- CGCGCTCC — lower, -0.00749
- CTGATCCA — lower, 0.141
- ACATCAAG — lower, 0.0345
- ATCTATAG — lower, 0.0968
- ACGGTATG — lower, 0.0829
- AGTTACCG — lower, 0.127
- ATCGCTAC — lower, -0.00901
- AAATCAAA — higher, 0.253
- TGAACCAA — lower, 0.148
- AGTTTGTC — lower, 0.0159
- GAGGGGAA — lower, -0.0796
- ACGTACTA — lower, 0.191
- CGATTCTC — lower, 0.0246
- GCGCTCCA — lower, -0.112
- GACCCGCA — lower, -0.215
- CCTACTCC — lower, -0.103
- ATTCTTGG — lower, 0.0825
- ATTAAACC — lower, 0.0492
- ACGGGCCC — lower, -0.184
- CGGACGAA — lower, 0.214
- GGACTTGA — lower, -0.193
- GGCCCACC — lower, -0.185
- ATCAATGA — lower, 0.202
- AGACCCCT — lower, -0.248
- CCTACGAA — lower, 0.037
- GAAGGTCA — lower, -0.0941
- CCGTTCAC — lower, -0.0817
- CACCGGTG — lower, 0.0119
- CGACGGAG — lower, 0.0855
- ATTGATGG — lower, 0.149
- GAATCTCC — lower, -0.0919
- CCCTTCTC — lower, -0.295
- CGCATCGC — lower, -0.319
- CCGAAAGA — lower, -0.00023
- CTTGTGTA — lower, 0.147
- ACCTCCTC — lower, -0.145
- CGACACTC — lower, 0.0838
- GACAATAA — lower, 0.219
- CTAGTAAC — lower, 0.0477
- ATCCTCCG — lower, -0.0942
- CAGCGCGG — lower, 0.0182
- ATCGTCGC — lower, 0.092
- TACGCCGA — lower, -0.0911
- CTCACGGC — lower, -0.104
- ATTGTACC — lower, 0.111
- CACAGCTG — lower, -0.193
- GGTACCGA — lower, -0.289
- CAGTTAGG — lower, 0.149
- AGTCTTAG — lower, -0.184
- AAATAGGG — lower, 0.0321
- GGCACTTA — lower, -0.0403
- CGCACTGC — lower, -0.032
- CTCGGTGC — lower, -0.0111
- AAATTTAC — lower, 0.219
- GAAAAACC — lower, 0.136
- AGCTCAGC — lower, -0.214
- AACCATCG — lower, 0.143
- ACGCAGGG — lower, -0.0779
- CGTTTAAG — lower, -0.0721
- AAGCGGGG — lower, -0.0456
- GTGAATCA — lower, -0.0143
- AACTGTAC — lower, 0.107
- AGACGTCT — lower, -0.197
- AAATGTGT — lower, 0.216
- AGCGAATA — lower, 0.1
- CTGATGTA — higher, 0.243
- TCAATGCA — lower, -0.118
- GAACAGTA — lower, 0.115
- GGGTAAAC — lower, 0.0445
- CAGAATGG — lower, 0.074
- ACCAGGGT — lower, -0.182
- ACCTTGAG — lower, 0.0293
- CCGGCCCC — lower, -0.406
- GTTATACA — lower, 0.167
- CGCGGGTC — lower, -0.073
- ACGGGGAG — lower, -0.29
- CGTAACAG — lower, 0.152
- ATTCAAAG — lower, 0.0234
- CGGAGCAC — lower, -0.181
- CGCAAGGC — lower, 0.0335
- ATCCTACA — lower, -0.183
- ATCATGCG — lower, -0.0578
- AACTCCGC — lower, -0.123
- CAGACCTA — lower, -0.0581
- CCTTAGTA — lower, 0.0819
- CAACGACA — lower, 0.141
- AAATTCAC — lower, 0.105
- AGTTCGAG — lower, 0.137
- AACGTCAC — lower, -0.0539
- GGATTATA — lower, 0.101
- GGGCGCAA — lower, -0.215
- GGCTAAAC — lower, 0.0162
- TGGTTGAA — lower, 0.0526
- CACCGAAG — lower, -0.0164
- ATGATCCC — lower, -0.0584
- GGATCACA — lower, 0.0855
- CCCCAGGG — lower, -0.433
- TAGAGAGA — lower, 0.0923
- GTGATAAC — lower, 0.0818
- ACAAATCA — lower, 0.229
- AGAGATGG — lower, 0.0996
- ATGCCCAC — lower, 0.016
- CGGTTCTA — lower, 0.00416
- CTCCAACC — lower, 0.0793
- CACCGCCA — lower, 0.081
- GCGTCGCC — lower, 0.0166
- CAATTGCC — lower, 0.0211
- CGGGGGCA — lower, -0.27
- CAACCAAG — lower, -0.0235
- CTCGAAAA — lower, -0.00194
- CAAAAACG — lower, 0.136
- CAGACCCC — lower, -0.385
- ACCTCTGG — lower, -0.158
- AAACCCTA — lower, 0.0287
- AGATACCC — lower, 0.0841
- CGCTCATA — lower, -0.0459
- AAGCCCGG — lower, -0.138
- AGTAACAG — lower, 0.201
- GACGAATC — lower, 0.04
- GAACGATA — lower, 0.0944
- ACATGAGC — lower, -0.113
- ACGTCTGG — lower, 0.00718
- GTGACGCA — lower, -0.0177
- AAGTATAC — higher, 0.266
- ACTTGAAC — lower, 0.0487
- ACTCCCCC — lower, -0.304
- ACCAGTCT — lower, -0.165
- CACTAATG — lower, 0.131
- ACTCTTCA — lower, 0.0944
- CGTCTCTC — lower, -0.0113
- ACCGGTTG — lower, -0.0905
- GATATGAA — lower, 0.214
- AGACGGAG — lower, -0.0645
- ATACGCTA — lower, 0.0444
- CCGTTACC — lower, -0.0214
- CACAGCGA — lower, 0.07
- CATAATGG — lower, -0.033
- GTCGAATA — lower, 0.0822
- ATCTTAGA — lower, 0.147
- ATTATGTA — higher, 0.267
- GATCAAAA — lower, 0.113
- CGACGTTC — lower, -0.309
- AAACGAAG — lower, 0.14
- ATTCCTAA — lower, 0.0365
- CTCTGCAA — lower, -0.0711
- TGTCATAA — lower, 0.102
- GCGACTCC — lower, -0.271
- GTAAAAAA — lower, 0.229
- TGGCTAAA — lower, -0.0987
- GTGCGCCA — lower, -0.245
- AGTCTGGG — lower, -0.323
- AACACGGC — lower, -0.0796
- AACTCTTG — lower, -0.0633
- AGACAGAT — lower, 0.134
- AGCAATGC — lower, 0.119
- AGATGGGA — lower, -0.0021
- AGTCGATA — lower, 0.111
- ATAAGGCC — lower, -0.0503
- ACGGTGTA — lower, 0.102
- CGTCCCCC — lower, -0.368
- AGTCGTTA — lower, 0.0841
- ATCTGATG — lower, -0.00759
